No constants are given. Whether binding was seen depends on the method and setting. A result given as binding can be weak or reduced; the word gives no strength. Where a sequence is shown, tags or fusion partners need not be part of it.

Sequences of proteins named here, by UniProt entry; tags and fusion partners are left off. A change or cut given only in a name is not applied to a line headed by its entry.
UniProt P38283: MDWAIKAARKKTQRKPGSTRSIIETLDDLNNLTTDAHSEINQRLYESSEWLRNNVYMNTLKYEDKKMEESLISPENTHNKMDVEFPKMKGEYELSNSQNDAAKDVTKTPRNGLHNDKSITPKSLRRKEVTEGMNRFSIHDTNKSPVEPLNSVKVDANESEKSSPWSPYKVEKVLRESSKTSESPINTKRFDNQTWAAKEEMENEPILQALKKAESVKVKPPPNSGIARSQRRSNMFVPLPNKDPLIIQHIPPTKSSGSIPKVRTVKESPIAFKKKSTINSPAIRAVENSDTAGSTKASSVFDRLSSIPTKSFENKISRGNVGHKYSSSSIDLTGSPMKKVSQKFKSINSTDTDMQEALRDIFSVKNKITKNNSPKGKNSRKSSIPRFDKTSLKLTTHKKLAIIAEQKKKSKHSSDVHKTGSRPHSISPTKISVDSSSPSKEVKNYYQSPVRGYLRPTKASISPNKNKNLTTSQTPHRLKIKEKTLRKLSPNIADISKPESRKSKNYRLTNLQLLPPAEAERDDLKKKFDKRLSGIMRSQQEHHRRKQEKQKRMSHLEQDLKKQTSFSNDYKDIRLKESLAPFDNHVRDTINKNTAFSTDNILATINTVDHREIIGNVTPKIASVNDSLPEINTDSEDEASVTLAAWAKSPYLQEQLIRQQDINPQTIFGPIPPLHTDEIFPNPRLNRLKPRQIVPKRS

This passage reports binding results from doi:10.1101/2020.09.10.288878.

This assay addresses Sli15 microtubule-binding (MTB) domain fused to the DNA binding domain of Gal4 (S. cerevisiae) (UniProt P38283). Put plainly: two-hybrid.

B1: Dam1 fused to the activation domain of Gal4 (protein, UniProt P53267 1-343)
chain: MSEDKAKLGTTRSATEYRLSIGSAPTSRRSSMGESSSLMKFADQEGLTSSVGEYNENTIQQLLLPKIRELSDSIITLDSNFTRLNFIHESLADLNESLGSLLYGIMSNSWCVEFSQAPHDIQDDLIAIKQLKSLEDEKNNLVMELSNMERGIKRKKDEQGENDLAKASQNKQFNQPLFPSSQVRKYRSYDNRDKRKPSKIGNNLQVENEEDYEDDTSSEASFVLNPTNIGMSKSSQGHVTKTTRLNNNTNSKLRRKSILHTIRNSIASGADLPIENDNVVNLGDLHPNNRISLGSGAARVVNGPVTKNRNSMFSGRAERKPTESRHSVAKKTEKKINTRPPFR
With B1, the binding entry is recorded as “binds”.
